Out of some 53,000 sequences screened, about 3,700 (7%) were called active.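 The calls were made as follows: active = gene knockdowns whose robust z-score for IL-1 alpha signal is at least 2 or at most -2, so actives lie on both sides; inactive = the rest.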 The list shows a part of the results.

A short description of the experiment: Components of the Cytosolic LPS Sensing Pathway: Gene Identification via Genome-wide siRNA Screen.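 Also: robust z of the log signal after scaling to non-targeting control siRNA wells of the plate.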 The settings on record: RAW264.7 macrophages, IL-1a HTRF, actives lie on both sides, screened at 100 nM (by protocol), cells primed 5 h with Pam3CSK4 first. The method, boiled down:
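Read-out: IL-1a HTRF on supernatant, divided by plate negative-control median ×100, log-transformed and converted to robust z-score. Cells were RAW264.7 given 100 nM siRNA, Pam3CSK4-primed 5 hours, then LipidA-transfected 24 hour.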
With GGAAGAUCAGAGAUGGACATT against Dennd1c, the z-score is inactive: 0.494.

GGAAAUACCCUUAUUUGUGTT against Asns: the z-score is inactive: 0.4.

As for GGCAUUUCUAGUUUUGUGGTT against Gpr173, the z-score is inactive: -1.33.

In the case of GGAGUUUGGGACCCUACUUTT against Foxo4, the z-score is inactive: -1.01.

Take GCACCACUAGAGGAAACGATT against Ccn4: the z-score was inactive: -0.506.

For GGUCGACCUCAGAGAUCUGTT against Trat1, the z-score is inactive: 1.38.

For the sequence GCGCAAAGAUGGCUAUUGCTT against Adamts3, the z-score was inactive: 1.42.

With AAUUCUGGACGAGGAGCAUTT against Abcc5, the z-score is active: 3.22.

For GCGUGUAUUCCACUCAUAATT against Setd5, the z-score was inactive: -0.776.

In the case of GGAUCACUGCUUACAAACGTT against Icam4, the z-score is inactive: -0.104.

GGUAGCUGUGAUAAAGCAUTT against Pcbd1: the z-score is inactive: -1.81.

For the sequence GGCGACCACUUUGUCUACATT against Plekhg3, the z-score is inactive: 1.1.

For the sequence GCAUUCAAACUGCUCACGUTT against Suclg2, the z-score is inactive: 0.818.

Take GGGUUAAUCAUAAAGACUGTT against Svopl: the z-score was inactive: 1.96.

Take CCUGCCAAAAGUUGUGGAGTT against Uqcrc1: the z-score is inactive: 0.361.

On to GGGCAUUAGGGUGGUAGCATT against Gapdhs, for which the z-score was inactive: -0.826.

For the sequence CGACUUCUGUUUAACUUAATT against Wdr26, the z-score was inactive: 0.047.

For the sequence GGUGUUCCUGCUCAUAUGUTT against Ecd, the z-score was inactive: 0.413.

Turning to GCUACUUUGUCCGACUCUATT against Pigt, the z-score is inactive: 0.976.

Regarding CCAAAUUGGGUCUAUAAGGTT against Rpl39l, the z-score was inactive: 0.197.

GGCAUUUGAGAAUAUUGAATT against Casq1: the z-score is inactive: -1.28.

Turning to GAUCUGGCUGCUUCUUACCTT against Porcn, the z-score is inactive: -0.623.

For the sequence GGAAAAUACAAGUCCAUUCTT against B4galt5, the z-score is inactive: -0.198.

CCAACUCAUUGGAUCUUGCTT against Glmp: the z-score is inactive: 0.848.

In the case of GCUGUGAUAGUCAAAAAACTT against Cxcl3, the z-score is inactive: -1.15.

Turning to GGAUCACCGGUUUCCGACUTT against Mgst2, the z-score is inactive: -0.11.

With CGCGAGGAAGUCGAGGUAUTT against Pax2, the z-score was inactive: 1.17.

With GGAUAUUUCAGUUGGCGGGTT against Lama2, the z-score was inactive: -0.158.

Regarding GCGAAUCAUUGAGAACGGCTT against Dnajb8, the z-score is inactive: 1.1.

Regarding GCAACGUGAUCCCUUCAUUTT against Slc26a7, the z-score is inactive: 0.0214.

Regarding GGAGGACAACAGCAAAACATT against Atoh1, the z-score is inactive: -1.01.

For the sequence CGUGAUCAGACACUUCACCTT against Olfr71, the z-score is inactive: 0.246.

Regarding CGGUCAGGGUCCUAAAUAUTT against Txnl1, the z-score is inactive: -0.869.

As to GGACUUAACAGCAACGCAGTT against Ndn, the z-score is inactive: -1.01.

Take GGUGGUGGAGAAGAUAGGATT against Pax8: the z-score is inactive: -1.05.

In the case of GGUCACUCCAUUGACUCAATT against Leprot, the z-score is inactive: 0.672.

For the sequence GGAAAAGACAUCAGAUGAATT against Mrpl1, the z-score is inactive: 0.233.

On to GCUAUUCUGUAAGGUCCCGTT against Gsto2, for which the z-score was inactive: 1.19.

Consider GGAAUACACUUACCUAGGUTT against Tpd52l2, for which the z-score is inactive: -0.897.

With GGAAAUACCAUUCAAGUGUTT against Rnf113a1, the z-score is inactive: 1.05.

Regarding GGUAAAAGGUGAAGAAAAATT against Nap1l3, the z-score was inactive: -1.51.

For CCACGUUUUGACUGACUUCTT against Thnsl1, the z-score was inactive: 0.287.

In the case of GCUGGAGAUGAUUGUCUGATT against Psmd8, the z-score is inactive: -1.22.

Regarding GGAACUGCCUACCUAGAGATT against Mrps17, the z-score is inactive: 0.782.

GGAGAAGAAACGGAAAUGATT against Jagn1: the z-score was inactive: -1.98.

As for GGCAGAUUUAGUUUCUUUUTT against Ppm1k, the z-score is inactive: 0.936.

In the case of GGACUCAGAGCUCUUUGACTT against Ipo13, the z-score was inactive: -1.74.

For the sequence CCAUGAGGAUGGAAACUACTT against Ranbp3, the z-score was inactive: -1.73.

For the sequence GGAAACAUGACAGUGGUGCTT against Hypk, the z-score is inactive: -0.825.

With GGGCAAGAUUAAGACUUAUTT against Armcx1, the z-score was inactive: -0.715.

As for GGUACCGGAGUCUGAAACATT against Drp2, the z-score is active: -2.53.

On to GGUGGUUAGAUCUUACGCUTT against Tmem184a, for which the z-score is active: 4.37.

For the sequence GGCAGAAACCAAGUUGGCUTT against Diablo, the z-score was inactive: -0.502.

Consider GGACCUGGUUCAGGUAUCATT against Col6a3, for which the z-score is active: -2.17.

Turning to GCGGCUUACUCAAAUCAAGTT against Ctdspl2, the z-score was inactive: -0.837.

For CCUCUGCUUUAUGAUCAACTT against Gm867, the z-score is inactive: -1.26.

Take GCCAUGCUCACUGAACUUCTT against Nanp: the z-score is active: -2.3.

For the sequence CCUGGAACUUUUCCCUUAUTT against Olfr235, the z-score was inactive: 0.0668.

For the sequence GCUUAGAUCACCUAAUGACTT against Parp3, the z-score is inactive: 1.18.

Consider GGUCACAGAUGAAAUUAUGTT against Ltbr, for which the z-score was inactive: 0.2.

Take GGCUCCUUUUUGAGCUGAATT against Zfp950: the z-score was inactive: -0.525.

For the sequence GCCCAAAUCGCUUACUCAUTT against Rtn4ip1, the z-score was inactive: -1.18.

Consider GGUGCAACAAUCAUUUGAATT against Casp4, for which the z-score was inactive: -0.431.

Regarding ACUCAAUGUGCUCAAAAAATT against Scnm1, the z-score was inactive: -0.713.

GGUGCUAUGGAAAAUCAAGTT against Dcaf1: the z-score was inactive: -1.04.

As for CCUUUCCUACUCCCAACACTT against Egr1, the z-score is inactive: 0.21.

For CCCAUGCUCUCAAGACCAATT against Epn3, the z-score was inactive: -0.0257.

For the sequence GGUAGCCAAACUUCGUCGATT against Trim37, the z-score was inactive: -0.237.

On to GGACAACAUUGCCUGUACUTT against Islr, for which the z-score is inactive: -1.01.

Take CGGUUCCAACCUUGAAAAATT against H1f10: the z-score is inactive: -0.676.

For CUUUGCUCUAUCUCUCAGCTT against Olfr504, the z-score was inactive: 1.44.

CCUACACUGAGAUUUCAACTT against Nsl1: the z-score is inactive: -0.595.

In the case of GGAUAGGUUGAACAGGUUGTT against BC028528, the z-score was inactive: 1.19.

On to GGAUCAGAACUUAUCUGUGTT against Utp23, for which the z-score is inactive: 0.383.

On to CCUUUAUCAUUGGAUAACUTT against Dusp11, for which the z-score is inactive: 1.53.

Consider GGCAGUUCUCCAGUGCUUUTT against Mtss1, for which the z-score was inactive: -1.32.

With GGUAAUAAAGCUCUUACAGTT against Nanp, the z-score was inactive: 0.0716.

Turning to GGCUAGCAGGAUCAGCAUCTT against Rnf212, the z-score is inactive: 0.617.

GCUAUGUGAGUUCCACAAATT against Rapsn: the z-score is inactive: -1.28.

On to CCUGUUCUAACUGUAUCUUTT against Pcdhb9, for which the z-score was inactive: -0.129.

For the sequence GGUUUAAGAAGUCAACAUUTT against Slc36a4, the z-score was inactive: -0.861.

Consider GGCAAGAAGUAUUUCCAUGTT against Fcgr4, for which the z-score is inactive: 0.795.

Turning to GGAGUUUUAUGCUGAGCAGTT against Eef1akmt1, the z-score was inactive: 1.51.

With GCACUCAAUAUAGCUUUAATT against Olfr1489, the z-score is inactive: -0.81.

For GGCAUCUUAUUUCUUGUUATT against Tbkbp1, the z-score is inactive: -0.56.

Take GCGAUUUGUCAAAGAGCUGTT against Pcyox1: the z-score was inactive: -0.0486.

Regarding GGAGAAUUUGGAAAGUGAGTT against Rnf150, the z-score is inactive: 0.0696.

Regarding GGUUGUUGUUUCGUAACAUTT against Celf2, the z-score is inactive: -0.153.

In the case of GGAUGGAGACACCAAUUUUTT against Rdh9, the z-score was inactive: -0.37.

For the sequence GGCUGAAGACACUGAACACTT against Olfr643, the z-score is active: -2.51.

As to UGAACAAACUUUCAGCCUCTT against Ugt2b5, the z-score is inactive: -0.323.

As for GGAUUUAACCCUGAGAUACTT against Grpel2, the z-score was inactive: 0.621.

Turning to GGAGGUAUACAUCACCACATT against Pidd1, the z-score was inactive: 1.43.

For the sequence GGUACUACAAAAGAGAGCUTT against Ubr1, the z-score is inactive: -0.237.

As for GGAAAAGGUGGAGUUCUUATT against Fsd2, the z-score is inactive: 0.0598.

For GGACAUGAAAGUUGACCUGTT against Mrps31, the z-score was inactive: 0.465.

Turning to GGCAAAAAUACUUUGUCGGTT against Alox5ap, the z-score is inactive: -0.283.

Take GGAUAUUAUUGUUCCCACUTT against Olfr907: the z-score was inactive: -0.174.

For the sequence GGAAUAUCCAGUAUUGAUUTT against Cd180, the z-score is inactive: -0.396.

With CCAGUGCCUCAAGCUUUCATT against Slc35f6, the z-score is inactive: 0.403.

As for GGCAUCAGUUCCACAACUCTT against Klhl38, the z-score was inactive: -0.747.

On to GGCUUGUUUGAUGUUUGCATT against Ldhb, for which the z-score was inactive: 1.93.

Consider GCCUCUGAAAGUGUAAUUATT against Ccdc103, for which the z-score is inactive: 0.184.

For the sequence GGGAGUUAACUUCAAGGAATT against Ffar4, the z-score was inactive: 0.555.

GCAAAACCUACUGCGUGGATT against Kmt5a: the z-score was inactive: -0.796.

For the sequence CAGGGCUCACAGAGUCUCCTT against Olfr190, the z-score is inactive: -0.382.

For GCUGUAUGGCUAAGCAGUGTT against Olfr113, the z-score was inactive: -0.42.

(Values after PubChem BioAssay AID1508600 (Functional Genomics Laboratory (NCATS/FGL), 2020).)
